Results taken from publication doi:10.1101/2025.11.27.690698 (bioRxiv, 2025).
No constants are given. Whether binding was seen depends on the method and setting.

Protein sequences, listed by entry. Tags and fused reporters are not part of them. Lines headed by an entry give the natural chain unless they say otherwise; changes in a name come on top. Residues count along the entry.
UniProt Q86W26, 4-482, stated change not applied: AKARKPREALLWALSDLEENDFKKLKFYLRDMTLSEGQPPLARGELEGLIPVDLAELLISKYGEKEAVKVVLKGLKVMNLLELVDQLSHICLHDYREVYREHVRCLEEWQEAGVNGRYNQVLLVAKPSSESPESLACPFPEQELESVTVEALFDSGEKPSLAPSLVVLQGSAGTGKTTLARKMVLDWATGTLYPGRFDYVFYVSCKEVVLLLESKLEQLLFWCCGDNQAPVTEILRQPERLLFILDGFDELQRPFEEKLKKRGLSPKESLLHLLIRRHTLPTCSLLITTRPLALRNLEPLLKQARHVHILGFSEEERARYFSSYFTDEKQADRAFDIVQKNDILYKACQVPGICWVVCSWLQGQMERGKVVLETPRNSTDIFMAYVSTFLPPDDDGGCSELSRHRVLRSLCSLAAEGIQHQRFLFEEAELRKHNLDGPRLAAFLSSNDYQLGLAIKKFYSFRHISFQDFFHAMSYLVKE

Molecular target: human NLRP10ΔHD2–tail (aa 4-482) (human) (UniProt Q86W26)
Assay: SEC

human NLRP10ΔHD2–tail (aa 4-482) (from UniProt Q86W26 4-482) (domain or fragment)
binding: no binding
